Consider two molecules from paper PMC7498585.

Chains of the proteins cited; added tags and fusions are not shown.
UniProt Q9Y5K8: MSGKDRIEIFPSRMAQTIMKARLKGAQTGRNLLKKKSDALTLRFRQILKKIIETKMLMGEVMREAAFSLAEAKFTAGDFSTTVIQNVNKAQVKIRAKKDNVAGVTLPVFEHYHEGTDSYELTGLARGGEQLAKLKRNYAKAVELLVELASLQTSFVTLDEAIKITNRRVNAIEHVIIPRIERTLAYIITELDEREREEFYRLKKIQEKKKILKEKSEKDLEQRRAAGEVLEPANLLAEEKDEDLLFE

One test deals with T1, DRAM1-FLAG (human) (UniProt Q8N682).
T1 sequence: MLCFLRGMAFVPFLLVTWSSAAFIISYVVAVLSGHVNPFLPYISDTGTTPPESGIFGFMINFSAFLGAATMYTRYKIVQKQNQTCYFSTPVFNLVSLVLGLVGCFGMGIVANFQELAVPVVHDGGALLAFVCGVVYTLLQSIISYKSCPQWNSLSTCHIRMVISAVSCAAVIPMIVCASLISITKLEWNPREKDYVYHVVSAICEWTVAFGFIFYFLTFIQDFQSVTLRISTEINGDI
As to the kind of experiment: co-IP; RIPA lysates of DRAM1-overexpressing H1975 and A549 cells; anti-FLAG agarose beads, 4 °C overnight; Western blot for ATP6V1D and ATP6V0D. (A western blot detects proteins with antibodies after separation by electrophoresis.)

The target in the next test is T2, 3FLAG-DRAM1 (human) (UniProt Q8N682).
T2 sequence: T1 sequence
As to the kind of experiment: co-IP; A549 cells transfected with different concentrations of 3FLAG-DRAM1 plasmid; the legend says co-IP with anti-EPS15 antibody, the methods say anti-FLAG agarose beads; RIPA lysate, 4 °C overnight; Western blot.

These are yes or no findings as the source states them, for the method shown. In cells and extracts the contact can be indirect. Some entries that bind do so weakly or less than the wild type. Where a sequence is shown, tags or fusion partners need not be part of it.

Turning to V-ATP6V1D (from UniProt Q9Y5K8 1-247), the binding result with DRAM1-FLAG (human) was “no binding”.

B1: EPS15 (epidermal growth factor receptor pathway substrate 15) (protein, UniProt P42566 1-896)
chain: MAAAAQLSLTQLSSGNPVYEKYYRQVDTGNTGRVLASDAAAFLKKSGLPDLILGKIWDLADTDGKGILNKQEFFVALRLVACAQNGLEVSLSSLNLAVPPPRFHDTSSPLLISGTSAAELPWAVKPEDKAKYDAIFDSLSPVNGFLSGDKVKPVLLNSKLPVDILGRVWELSDIDHDGMLDRDEFAVAMFLVYCALEKEPVPMSLPPALVPPSKRKTWVVSPAEKAKYDEIFLKTDKDMDGFVSGLEVREIFLKTGLPSTLLAHIWSLCDTKDCGKLSKDQFALAFHLISQKLIKGIDPPHVLTPEMIPPSDRASLQKNIIGSSPVADFSAIKELDTLNNEIVDLQREKNNVEQDLKEKEDTIKQRTSEVQDLQDEVQRENTNLQKLQAQKQQVQELLDELDEQKAQLEEQLKEVRKKCAEEAQLISSLKAELTSQESQISTYEEELAKAREELSRLQQETAELEESVESGKAQLEPLQQHLQDSQQEISSMQMKLMEMKDLENHNSQLNWCSSPHSILVNGATDYCSLSTSSSETANLNEHVEGQSNLESEPIHQESPARSSPELLPSGVTDENEVTTAVTEKVCSELDNNRHSKEEDPFNVDSSSLTGPVADTNLDFFQSDPFVGSDPFKDDPFGKIDPFGGDPFKGSDPFASDCFFRQSTDPFATSSTDPFSAANNSSITSVETLKHNDPFAPGGTVVAASDSATDPFASVFGNESFGGGFADFSTLSKVNNEDPFRSATSSSVSNVVITKNVFEETSVKSEDEPPALPPKIGTPTRPCPLPPGKRSINKLDSPDPFKLNDPFQPFPGNDSPKEKDPEIFCDPFTSATTTTNKEADPSNFANFSAYPSEEDMIEWAKRESEREEEQRLARLNQQEQEDLELAIALSKSEISEA
Turning to B1, in the test with 3FLAG-DRAM1 (human), the binding entry is recorded as “binds”.
